Reference: patent EP1714676A2, “Use of N-substituted-1,5-dideoxy-1,5-imino-D-glucitol compounds for treating hepatitis virus infections” (G.D. Searle LLC., priority 1999, dated 1999)
For at least one compound, name, drawing or mass did not settle the structure.

Experiments:
[1] = test system: HBV; assay: Cell culture experiments: total HBV DNA and immune precipitated DNA; assay type: cell-based
[2] = test system: woodchuck hepatitis virus (WHV); assay: Woodchuck model: immune precipitated HBV DNA (IPDNA), immune precipitation followed by quantitative PCR; assay type: in vivo; settings: increasing for low dose, decreasing for high dose animals; p<0.005
Method: Therefore, five groups of four animals each (all groups had both sexes, all but the control had two of each sex) were assigned to 0, 12.5, 25, 50, and 100 mg/kg/day with BID oral dosing. These were lab-reared wild animals. All animals were infected with woodchuck hepatitis virus (WHV) as neonates, and had been tested positive on serological tests for WHV surface antigen. Blood samples were drawn one week prior to dosing (-1 week), immediately before dosing (0 weeks), weekly during dosing (1, 2, 3, and 4 weeks), and after the end of dosing (5, 6, 8, and 10 weeks).
There are two measures of drug efficacy: reduction in total HBV DNA (measured by quantitative PCR), and reduction in HBV DNA from capsids with intact surface glycoproteins, which is the active form of the virus (measured by an ELISA-like immune precipitation assay followed by quantitative PCR).
Substantial variation existed in the IPDNA assay, both between assay runs and within assay runs (data not shown). Even so, it was possible to observe and model a slope over weeks 0-4 which is generally increasing for low dose animals and decreasing for high dose animals. […]

CCCCCCCCCN1C[C@H](O)[C@@H](O)[C@H](O)[C@H]1CO [Compound 1, N-(n-nonyl)-1,5-dideoxy-1,5-imino-D-glucitol]
effect on the immune precipitated DNA (IPDNA) [1]: marked effect
effect on total HBV DNA [1]: little or no effect
change in slope of IPDNA over weeks 0-4 with dose [2]: statistically significant
